Data on 4 molecules can be found in article PMC4459967.

Common to all, as to test: affinity purification with mass spectrometry; anti-Myc (MMS19-Myc) or anti-Flag (CIA1-Flag, CIA2-Flag) antibody-conjugated beads on extracts of flowers or seedlings of transgenic plants; CIA1-Flag and CIA2-Flag in the wild-type background, also done in the mms19 mutant background; lysis buffer 50 mM Tris-HCl pH 7.6, 150 mM NaCl, 5 mM MgCl2, 10% glycerol, 0.1% NP-40, 0.5 mM DTT; 4 °C; wild-type plants as control

The target of experiment [1] is T1, CIA2-Flag (Arabidopsis thaliana) (UniProt Q9C9G6).
T1 sequence: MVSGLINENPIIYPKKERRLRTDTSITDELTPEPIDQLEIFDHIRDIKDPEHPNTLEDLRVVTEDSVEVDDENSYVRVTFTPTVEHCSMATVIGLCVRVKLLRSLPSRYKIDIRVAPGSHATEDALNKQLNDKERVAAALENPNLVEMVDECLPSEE

Experiment [2] deals with T2, CIA1-Flag (Arabidopsis thaliana) (UniProt O80990).
T2 sequence: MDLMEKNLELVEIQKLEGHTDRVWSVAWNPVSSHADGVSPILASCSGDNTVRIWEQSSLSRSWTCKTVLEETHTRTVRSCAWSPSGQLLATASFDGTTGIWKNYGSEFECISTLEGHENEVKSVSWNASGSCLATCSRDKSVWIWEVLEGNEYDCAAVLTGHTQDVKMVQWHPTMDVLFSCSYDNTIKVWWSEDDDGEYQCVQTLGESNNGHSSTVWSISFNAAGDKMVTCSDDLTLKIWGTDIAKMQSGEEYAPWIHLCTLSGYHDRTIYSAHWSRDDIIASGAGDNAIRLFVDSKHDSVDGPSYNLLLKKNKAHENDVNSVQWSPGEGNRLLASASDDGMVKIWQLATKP

Experiment [3] has as its target T3, MMS19-Myc (Arabidopsis thaliana) (UniProt Q0WVF8).
T3 sequence: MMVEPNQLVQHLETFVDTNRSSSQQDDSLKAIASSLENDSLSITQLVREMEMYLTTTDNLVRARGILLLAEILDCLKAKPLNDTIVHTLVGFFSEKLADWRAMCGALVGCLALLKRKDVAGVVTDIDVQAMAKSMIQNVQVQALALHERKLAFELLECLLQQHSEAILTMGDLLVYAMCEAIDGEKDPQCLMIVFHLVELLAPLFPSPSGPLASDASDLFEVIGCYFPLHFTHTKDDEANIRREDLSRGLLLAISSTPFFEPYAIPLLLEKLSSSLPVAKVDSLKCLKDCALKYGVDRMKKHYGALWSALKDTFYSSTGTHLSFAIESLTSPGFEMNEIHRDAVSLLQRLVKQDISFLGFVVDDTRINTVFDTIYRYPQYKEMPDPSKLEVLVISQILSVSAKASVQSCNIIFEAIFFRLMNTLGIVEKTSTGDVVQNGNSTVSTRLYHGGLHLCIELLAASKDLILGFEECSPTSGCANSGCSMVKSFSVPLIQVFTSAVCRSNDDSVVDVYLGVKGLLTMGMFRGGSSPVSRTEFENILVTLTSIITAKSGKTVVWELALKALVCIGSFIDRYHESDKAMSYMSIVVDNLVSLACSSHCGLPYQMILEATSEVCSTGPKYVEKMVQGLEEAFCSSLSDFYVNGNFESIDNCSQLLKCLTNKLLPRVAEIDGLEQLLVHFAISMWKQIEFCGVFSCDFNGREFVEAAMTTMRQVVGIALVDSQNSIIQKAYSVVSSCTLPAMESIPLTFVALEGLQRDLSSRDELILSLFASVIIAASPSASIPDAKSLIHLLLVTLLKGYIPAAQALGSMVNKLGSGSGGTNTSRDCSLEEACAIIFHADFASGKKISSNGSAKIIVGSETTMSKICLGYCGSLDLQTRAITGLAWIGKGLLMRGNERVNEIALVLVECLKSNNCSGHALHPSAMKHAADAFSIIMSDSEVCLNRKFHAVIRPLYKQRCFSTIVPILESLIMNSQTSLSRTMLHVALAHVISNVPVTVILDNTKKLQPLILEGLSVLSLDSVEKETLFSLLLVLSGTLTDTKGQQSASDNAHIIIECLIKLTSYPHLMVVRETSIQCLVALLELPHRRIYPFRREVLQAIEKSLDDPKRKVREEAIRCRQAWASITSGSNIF

These are yes or no findings as the source states them, for the method shown. Binding seen in cells or lysates may run through a third protein. A yes stands for co-enrichment or nearness to the bait. Other partners may have been found. Where a sequence is shown, tags or fusion partners need not be part of it.

B1: MOS14 (protein, UniProt Q8GUL2 1-958)
chain: MEHQNAVKEALNALYHHPDDTVRVHADRWLQNFQGTLDAWQVADNLLHDSSSNLETLIFCSQTLRSKVQRDFEELPPGAFQKLRQSLTTLLKKFHKGPPKVRTQISIAVAALAVHVPAADWGDGGIISWLRDEMHMHPEYVPGFLELLTVLPEETFNYKIAARPDRRRQFEKELTSQMEAALSILSACLKISELKEQVLEAFASWLRLRHGIPGTVLACHPLVHAALSSLNCDPLSEASVNVISELIHHTASPSSGGISAQTPLIQVIVPQILSLQAHLRDSSKDEEDVKAIGRLFADVGDSYVELIATGSDEPMVIVHALLEVTAHPEFDIASMTFNFWHSLQLMLTKRESYSSLGSEASIEVERNRRLHIFQPAYQSLVSLVGFRVQYPEDYQGLSYEDLKEFKQTRYAVADVLIDAALILGGDTTLKILYMKLLEANAQTGNNFQDWRPAEAILFCIWAISNYVSVVEAEVMPQVMALLQNLPQQAQLLQTACLLVGAYSKWLNAAPASVSILPSIIRILMSGMGTSEDCAAAAALAFRHTCDDCRKNLCGYFEDLFNIYCMAINGGGGYKVSAEDSLNLVEALGMVVTELPLDQAKGALEKLCFSAASPLEEAAKEDLEKKHARELTVHIDRFAFLFRYVNHPEAVAAEINKHWAIFRVIFDARPWDMRTMESLCRACKYAVRTSGRYIIDTIGEMLEKIQFHYQQHHQPCFLYLSSEVIKIFGSDPSCAVYLKNLIETLFAHTTCLMTSIKEVTARPDIADDCFLLASRCLRYCPHLFIPSPIFPALVNCAMIGITVQHREACHSILTFLTDIFDLEKSVNEEQFVRIRDNIIIPRGATITRILIASLAGALPSSRLDTVTYSLLALTRTYRLQAVSWAKESVSLIPRTALTETESTKFLQALSDIAYGADVNSLIGQVEELSDVCRRNRTVQELVQAALKPLELNLVTAPVS
B1: the binding entry in experiment [1] and in experiment [2] was “binds” in each case.

B2: AT3G11830 (protein, UniProt Q9SF16 1-557)
chain: MASMMQPQIILLKEGTDTSQGKAQLVSNINACTAVGDVVRTTLGPRGMDKLIHDDKGSVTISNDGATIMKLLDIVHPAAKILVDIAKSQDSEVGDGTTTVVLLAAEFLKEAKPFIEDGVHAQNLIRSYRTASTLAIAKVKELAVSIEGKSVEEKKGLLAKCAATTLSSKLIGGEKEFFATMVVDAVMAIGNDDRLNLIGIKKVPGGNMRDSFLVDGVAFKKTFSYAGFEQQPKKFLNPKILLLNIELELKSEKENAEIRLSDPSQYQSIVDAEWNIIYDKLDKCVESGAKVVLSRLAIGDLATQYFADRDIFCAGRVAEEDLNRVAAAAGGTVQTSVNNIIDEVLGTCEIFEEKQVGGERFNIFSGCPSGRTATIVLRGGADQFIEEAERSLHDAIMIVRRAVKNSTVVPGGGAIDMEISKYLRQHSRTIAGKSQLFINSYAKALEVIPRQLCDNAGFDATDVLNKLRQKHAMQSGEGASYGVDINTGGIADSFANFVWEPAVVKINAINAATEAACLILSVDETVKNPKSESAQGDAAGAMGRGRGGGRGRGMRRR
With B2, the binding result in experiment [1] and in experiment [2] was “binds” in each case.

B3: AT3G63460 (protein, UniProt Q8L611 1-1104)
chain: MACIKGVGRSASVALAPDAPYMAAGTMAGAVDLSFSSSANLEIFKLDFQSDDRDLPLVGEIPSSERFNRLAWGRNGSGSEEFALGLIAGGLVDGNIDLWNPLSLIGSQPSENALVGHLSVHKGPVRGLEFNAISSNLLASGADDGEICIWDLLKPSEPSHFPLLKGSGSATQGEISFISWNRKVQQILASTSYNGTTVIWDLRKQKPIINFADSVRRRCSVLQWNPNVTTQIMVASDDDSSPTLKLWDMRNIMSPVREFTGHQRGVIAMEWCPSDSSYLLTCAKDNRTICWDTNTAEIVAELPAGNNWNFDVHWYPKIPGVISASSFDGKIGIYNIEGCSRYGVEENNFGTAPLKAPKWYKRPVGASFGFGGKLVSCHARAPAKGTSSILSEVFLHSLVTEQSLVSRTSEFEAAIENGDMTSLRGLCEKKSEETESEEEKETWGLLKIMFEEEGTSRTKLISHLGFTLPVAEKDQAVDGLSSDLNGIRLEDTAADALDLDDSNEAAAFAMDNGEDFFNNFPAKPDTPVSTSAKDFMPSDTDFSTKGEETQEMQEEEEESSDPVFDNAIQRALIVGDYKEAVDQCITANKMADALVIAHVGGTALWESTREKYLKTSSAPYMKVVSAMVNNDLRSLIYTRSHKFWKETLALLCTFAQGEQWTTLCDALASKLMAAGNTLAAVLCYICAGNVDRTVEIWSRSLANERDGRSYAELLQDLMEKTLVLALATGNKKFSASLCKLFESYAEILASQGLLTTAMKYLKVLDSGGLSPELSILRDRISLSAEPETNTTASGNTQPQSTMPYNQEPTQAQPNVLANPYDNQYQQPYTDSYYVPQVSHPPMQQPTMFMPHQAQPAPQPSFTPAPTSNAQPSMRTTFVPSTPPALKNADQYQQPTMSSHSFTGPSNNAYPVPPGPGQYAPSGPSQLGQYPNPKMPQVVAPAAGPIGFTPMATPGVAPRSVQPASPPTQQAAAQAAPAPATPPPTVQTADTSNVPAHQKPVIATLTRLFNETSEALGGARANTTKKREIEDNSRKLGALFVKLNSGDISKNAADKLAQLCQALDNNDFSTALQIQVLLTTSEWDECNFWLATLKRMMVKARQNVR
As to B3, the binding entry in experiment [3], in experiment [1] and in experiment [2] was “binds” in each case.

B4: TRN1 (protein, UniProt Q8H0U4 1-891)
chain: MAATAVVWQPRDDGLAEICSLLEQQISPSSVVDKSQIWKQLQHFSQFPDFNNYLVFILVRAEGKSVEVRQAAGLLLKNNLRGAYPSMTQENQKYIKSELLPCLGAADRNIRTTVGTIISVIVNIEGVSGWHELLPALVTCLDSNDLNHMDGAMDALSKICEDIPHVLDTEVPGLAERPINIFLPRLLQFFQSPHASLRKLALGSVNQYIIIMPAALYNSLDKYLQGLFVLANDPVPEVRKLVCAAFVHLTEVLPSSIEPHLRNVMEYMLQVNRDPDEEVSLEACEFWSAYCDAQLPPENLKEFLPRLIPVLLENMAYADDDESLLDAEEDESQPDRDQDLKPRFHTSRLHGSEDFDDDDDDSFNVWNLRKCSAAAIDVLSNVFGDEILPALMPLIQKNLSASGDEAWKQREAAVLALGAIAEGCMNGLYPHLSEIVAFLLPLLDDKFPLIRSISCWTLSRFGKYLIQESGNPKGYEQFEKVLMGLLRRLLDTNKRVQEAACSAFATVEEDAAEELVPHLGVILQHLMCAFGKYQRRNLRIVYDAIGTLADSVREELNKPAYLEILMPPLVAKWQQLSNSDKDLFPLLECFTSISQALGVGFAPFAQPVFQRCMDIIQLQQLAKVNPASAGAQYDREFIVCSLDLLSGLAEGLGSGIESLVQQSNLRDLLLNCCIDEAADVRQSAFALMGDLARVFPVYLQPRLLDFLEIASQQLSANLNRENLSVANNACWAIGELAVKVRQEVSPIVAKVVSSLGLILQHGEGVNKALVENSAITLGRLAWIRPDLVAPHMDHFMKPWCMALSMVRDDIEKEDAFRGLCAVVKVNPSGGVSSLVFICQAIASWHEIRSEDVQTEVSQVLNGYKHMLGNSWAECLSALDPPVKERLARYQV
On to B4, for which the binding result in experiment [3], in experiment [1] and in experiment [2] was “binds” in each case.
